Reference: article PMC10163288
The other results are listed elsewhere or left out.

B1: il2ra_site1_2b5i_sap_22_mot_HHH_b2_01283_af2_000000044_0001_1_16_H_._HHH_b1_00972_af2_0001_0000500028_0000001_0_0001_af2pred_dldesign_0_af2pred (protein)
chain: SSSSSDAAKALELFLEADKLFQAGKEEEAKEKLEEALKVARAAGANLLVRMIESALKQLESSSSS
B2: il2ra_site1_1z92_sap_15_mot_HHH_b1_00738_af2_000000244_0001_43_57_H_._HHH_eva_0006_af2_0001_0000200007_0000001_0_0001_af2pred_0001_af2pred_1_swapped (protein)
chain: SSAEKEFESARKLGIPPERIVRAMVKDVERRDPRLREEAEELLERVERGELPPEEAVKLLMELTE
B3: il2ra_site1_1z92_sap_10_mot_HHH_b1_07537_af2_000000083_0001_43_56_H_._HHH_b1_07363_af2_0001_0000800041_0000001_1_0001 (protein)
chain: SSSSSERQARIVVKIAVEVAKLSEEQKEELEELAEELVKRGLSFLEILKELDRLAVELASSSSSS
B4: il2ra_site1_3nfp_normal_mot_ems_3hC_836_0002_000000087_0001_24_40_H_._9ebc464cd7f6471d5ebf9a8082ac34f1_0001_0001_0000100003_0000001_0 (protein)
chain: DEEEIKERIEELLKRDPEEAHEHAYKLLKEAIQNRDPEKARVVLEALLLVTGDPKVERALETARR
B5: il2ra_site2_2erj_normal_mot_HHH_b1_01129_af2_000000281_0001_18_33_H_._HHH_b1_06416_0001_0000300013_0000001_0 (protein)
chain: SSSSSSDYEERVEELLEQVEESDDLEELYELLNEALRLASEAQNPELLELIWEVVEKHSSSSSSS
B6: il2ra_site2_3nfp_normal_mot_HHH_b1_03557_000000106_0001_41_55_H_._HHH_b2_00561_0001_0000400025_0000001_0_af2pred_0001_1_af2pred_swapped (protein)
chain: SSSSSDEEREEVEELLEEAEHIEDEREVFIVLVEAFFLALELRDPELERLVREFLKEFRSSSSSS
B7: il2ra_site2_2erj_normal_mot_HHH_b2_01455_000000042_0001_1_17_H_._HHH_b1_05944_0001_0000100002_0000001_0_af2pred_0001_af2pred (protein)
chain: SSSSSELEEFIEELKRKFNLSEEAEELLEEAAEFAKEAGVDERLIERALELHAERLAEQLSSSSS
B8: il2ra_site2_2erj_normal_mot_6bd1339e93f6fdda22195c76da45ec5d_0001_000000136_0001_37_51_H_._ems_3hC_696_0001_0000700021_0000001_0_af2pred_0001_af2pred (protein)
chain: LEEDILRAFRIAVELLEKFRDDPEIERLVLEASLELTEAIEENDEEKIERVIEKIEEIKEEADSS
B9: il2ra_site2_3nfp_normal_mot_HHH_b2_06320_000000197_0001_39_53_H_._3e5e4a15067cbc373d7c33478bca156f_0001_af2_0001_0000100002_0000001_0 (protein)
chain: DERELIRELVLSGDPILFAIANVLAEARILGDEEVVEEIEKLIEELEKGELPPEEVLRLVARLLR
B10: il2ra_site2_3nfp_sap_23_mot_HHH_b2_02437_000000052_0001_42_56_H_._HHH_b2_04251_af2_0001_0000200003_0000001_0_0001 (protein)
chain: SSSSSIAEEYLRAALELLRLAVEEGDEEAVEEHTELVRQAAHDQGNPEVEERAEELLRELSSSSS
B11: il2ra_site2_3nfp_normal_mot_HHH_b1_03376_000000004_0001_41_55_H_._HHH_b2_00671_af2_0001_0000300009_0000001_0 (protein)
chain: SSSSDEERLRELLEQVEEAVRKGDEEEARKLVEEATQIAYELRDHEVFFELAEILIRLLNSSSSS
B12: il2ra_site1_1z92_sap_20_mot_ems_3hM_2197_000000181_0001_1_19_H_._HHH_b1_03565_0001_0000100001_0000001_0_0001_af2pred_0001_af2pred_1 (protein)
chain: SSSSDEERSLKRLVKTAVELAGLSEEQQEELEELVEKLIEEGVDFEEAARIIDRRALELSESSSS
B13: il2ra_site2_2erj_normal_mot_HHH_b1_03609_af2_000000077_0001_42_55_H_._HHH_b1_01470_af2_0002_0000700020_0000001_0 (protein)
chain: SSSSSEEVEELLKQAEELIERGNPEEAEEVLRKASERAFELNNFELWAKISELLRELARLESSSS
B14: il2ra_site2_2erj_sap_21_mot_HHH_b2_02430_000000062_0001_23_40_H_._HHH_b2_01184_0001_0000200045_0000001_0_0001 (protein)
chain: SSSSSDALHEAYELANRLTHLVARNDPEQFEEVSERLKELAEELQSENLKEIIENLEKWFSSSSS
B15: il2ra_site2_2erj_sap_29_mot_9b841c8fe2e6d1e24304b827c5c38554_0001_1_af2_000000119_0001_36_49_H_._HHH_b2_06645_0001_0000700054_0000001_0_0001 (protein)
chain: SSSSSSSDREERVEELLERAKEVSLHEAFELAVEAQHIAAKNNDEELLRLIREVIEEHSSSSSSS
B16: il2ra_site1_2b5i_sap_14_mot_HHH_b1_01346_af2_000000027_0001_1_20_H_._HHH_b2_00868_0001_0000100002_0000001_0_0001_af2pred_dldesign_0_af2pred (protein)
chain: SSSSSPEVLARIAEARRLHAAGRWREAFDLLNELKKELDAKGADEEAQLVEDAYEALLRESSSSS
B17: il2ra_site2_3nfp_sap_17_mot_HHH_b2_07129_000000128_0001_19_36_H_._HHH_b1_06271_0001_0000200007_0000001_0_0001 (protein)
chain: SSSSDKEERLKQLLEELEELLEEGDYLEFARVAREILRLAEELGDEEAARIVLELFKEAQSSSSS
B18: il2ra_site2_2erj_normal_mot_HHH_b2_01204_af2_000000056_0001_19_34_H_._HHH_b2_01454_0001_0000200016_0000001_0 (protein)
chain: SSSSDEELREAYRLVVEVMHALTRNDEERFEKLLEEARRVAEEFNSESLLEALELLEELGSSSSS
B19: il2ra_site2_2erj_sap_18_mot_cf89365494dbba80ae51c8475d1ce666_0001_af2_000000081_0001_35_48_H_._HHH_b1_00889_0001_0000700034_0000001_0_0001 (protein)
chain: SSSSDALRFTFEILSRLMHLLAEGNEEEAEKLVEEAEEFLEHRDEHLLELLREFFEHLKSLSSSS
B20: il2ra_site1_3nfp_sap_19_mot_HHH_b1_01736_000000293_0001_24_39_H_._HHH_b2_06675_0001_0000200013_0000001_0_0001_af2pred_0001_af2pred (protein)
chain: SSSSDRSREFNRLAREVLELLQEGDKEEAEKVLEELKKHAEELGDPNAKRMVEFLEKKVNSSSSS
B21: il2ra_site2_3nfp_normal_mot_HHH_b1_05627_af2_000000038_0001_43_56_H_._HHH_b1_03590_0001_0000200036_0000001_0 (protein)
chain: SSSSSDKSEEYVRVALELAKRTEDEEVRERSLELARLLAESLNNPELEELVKEVAEELRKSSSSS
B22: il2ra_site2_3nfp_sap_23_mot_HHH_b1_03376_000000004_0001_41_55_H_._HHH_b2_04970_af2_0001_0000600013_0000001_0_0001 (protein)
chain: SSSSDHHEEYLEAALLLLEEAIENRDEHAVKTALELLELAIQSNNDEEAEELLERLEREFGSSSS
B23: il2ra_site1_2b5i_sap_14_mot_HHH_b1_01949_af2_000000041_0001_1_19_H_._HHH_b2_08251_0001_0000100007_0000001_0_0001_af2pred_dldesign_0_af2pred (protein)
chain: SSSSSAELEALREEAERLMRSRDKAGLRELAERLRALYEETRDPEVRRLLAEVERWLELASSSSS
B24: il2ra_site1_3nfp_sap_16_mot_HHH_b2_06429_af2_000000115_0001_1_18_H_._HHH_b1_00844_0001_0000600031_0000001_0_0001_af2pred_0001_af2pred_1 (protein)
chain: SSSSDEESEEVLEEAEKLIRRLLEEGNPLEALRAADEYLRILAKLGDPEAVERLAEFARELSSSS
B25: il2ra_site2_3nfp_normal_mot_HHH_b1_03376_000000004_0001_41_55_H_._HHH_b1_05644_af2_0001_0000900045_0000001_0_af2pred_0001_af2pred (protein)
chain: SSSSSEEEREIKELLEEAQELLKNGNPEEAEKVVLEAALLAFEIRNPELRREAAELLLSIRSSSS
B26: il2ra_site1_3nfp_normal_mot_46d73865503fbedcaf0f3a45445d594c_0001_af2_000000151_0001_1_12_H_._HEEHE_2114_af2_0001_0000200007_0000001_0 (protein)
chain: DEEETFEKAVEELAKVAGVPSVTVEEHNGRFTVTVEGSDSDARNALKLIELAARARGLEVELREG
B27: il2ra_site1_2b5i_sap_20_mot_e6a9f0e24292654465a3c3805779fe2a_0001_1_af2_000000226_0001_15_31_H_._07531ca91c5b0cc5c2ed90a52fa42f9e_0001_1_af2_0001_0000500079_000 … (protein)
chain: SSSSSDAQAIADRALEEARALAAAGRRREALEVLDKAIKEVDALDDEAAADRLEALALELSSSSS
B28: il2ra_site2_2erj_normal_mot_HHH_b2_00636_000000258_0001_1_19_H_._HHH_b1_05458_af2_0001_0000200021_0000001_1 (protein)
chain: SSSDEEEEIEELLKELERLIERNDVARAYEVVERLYELILELNDEEAARILARLTRLVVEISSSS
B29: il2ra_site1_3nfp_normal_mot_ems_3hM_3354_af2_000000165_0001_44_63_H_._HEEHE_2118_af2_0001_0000400032_0000001_0 (protein)
chain: DLLEEFERAVERIAEIAGVPHVEVEVRNGKVHVTFEGDDLQAKAASRIVEESARAFGIKVEVTVE
B30: il2ra_site2_3nfp_sap_24_mot_HHH_b2_02902_af2_000000043_0001_44_57_H_._313f487e3ec02f6225919a247f8b7ae5_0001_1_af2_0001_0000300010_0000001_0_0001 (protein)
chain: SSSSSDVEELLEEAEELTKEGDTEEALQVLLRAAALAWELGDFELFARVNELAEELAKLESSSSS
B31: il2ra_site2_3nfp_sap_22_mot_HHH_b2_00942_af2_000000289_0001_40_57_H_._ems_4hM_4290_0001_0000400052_0000001_0_0001 (protein)
chain: SSSSSEHERLWELSSEAFELLENGNPEEAEEVAEEARELAERLNDRVARRSIEELLRVISSSSSS
B32: il2ra_site2_2erj_sap_20_mot_HHH_eva_0050_af2_000000198_0001_43_62_H_._HHH_b1_02534_0001_0000100006_0000001_0_0001 (protein)
chain: SSSSSEEELRELFELAARLLALLSRGDEEEVQKVLEELEELARKLGSDVAEEVVEMIERELSSSS
B33: il2ra_site1_1z92_normal_mot_3c291a2f2994a8e029b17f9ec7f22732_0001_af2_000000144_0001_36_50_H_._66959ead3e6c57cb3ef8243f3eb758e0_0001_1_af2_0001_0000400035_00000 … (protein)
chain: ALSEEELEEAVEKNDEELLREFIKLLLEDAGDPRLVEQLLKILVKRLGLPPEVLERLRELLKELT
B34: il2ra_site1_2b5i_sap_8_mot_HHH_b1_01346_af2_000000027_0001_1_20_H_._39b139147af3ad00170bddbd6f59d520_0001_af2_0001_0000100002_0000001_1_0001 (protein)
chain: SSSSDEAVQRVTELFSEASRLWLKGNPEEARRLIEEAAELAKENNDERAQEDLERMLELLSSSSS
B35: il2ra_site1_1z92_normal_mot_HHH_b2_01478_000000292_0001_19_36_H_._36bcdb301988f4a659962e34de24edd2_0001_1_0001_0000100010_0000001_0_af2pred_0001_af2pred (protein)
chain: NVKEFLAEQLRRKPPEAVRKLLERLKEALKRSGTPPEEIREFLQELAELAGDPEVEKIVEELIKP
B36: il2ra_site2_3nfp_normal_mot_HHH_b1_01086_000000225_0001_20_36_H_._HHH_b2_06691_0001_0000400085_0000001_0_af2pred_0001_1_af2pred_swapped (protein)
chain: SSSSSDEELEEEIEELLEQAKHIEDPHERFAVLADAATLAIQNNDPEAERLVKEVARRLGSSSSS
B37: il2ra_site2_2erj_sap_27_mot_HHH_b1_06697_000000025_0001_41_54_H_._HHH_b2_06097_0001_0000200013_0000001_0_0001 (protein)
chain: SSSSDKLRELYKLAVELMRLVAEGDEERFEEVAEEVRKLVEELDSRTAREILEALERKIKSSSSS

Molecular target: il2ra, P01589
Assay: yeast display titration

Apparent Kd, inactive:
B1 no binding seen
B2 no binding seen
B3 no binding seen
B4 no binding seen
B5 no binding seen
B6 no binding seen
B7 no binding seen
B8 no binding seen
B9 no binding seen
B10 no binding seen
B11 no binding seen
B12 no binding seen
B13 no binding seen
B14 no binding seen
B15 no binding seen
B16 no binding seen
B17 no binding seen
B18 no binding seen
B19 no binding seen
B20 no binding seen
B21 no binding seen
B22 no binding seen
B23 no binding seen
B24 no binding seen
B25 no binding seen
B26 no binding seen
B27 no binding seen
B28 no binding seen
B29 no binding seen
B30 no binding seen
B31 > 894 nM
B32 no binding seen
B33 no binding seen
B34 no binding seen
B35 no binding seen
B36 no binding seen
B37 no binding seen

Two records picked at random from those above:
Apparent Kd, inactive:
B32 no binding seen
B27 no binding seen
